Source: PubChem BioAssay AID493014 (National Center for Advancing Translational Sciences (NCATS), 2011)
This is one part of the list. Shown are side measurements of this screen, not its main read-out; they come without a call. Compounds called inactive in the main read-out are mostly missing here. The note in brackets gives the kind of curve behind each potency; many fits are weak.

Assay: qHTS Assay to Find Inhibitors of Chronic Active B-Cell Receptor Signaling
Details: ABC-DLBCL IkBa-CBG/CBR reporter, luminescence ratio (green luciferase fused to IkBa over red control in TMD8 lymphoma cells), 4 h
Method in brief: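 Cell line TMD8 (human ABC DLBCL), stably expressing tet-inducible CBG68-IkBa fusion and CBR; IMDM/0.5% FBS; cpd up to 46 uM; dox induction, 4 h, 37C/5% CO2; dual luminescence; green/red ratio; MG132 control.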

[1] = measured here: CBR red luminescence, cell number

Row | SMILES | AC50 [1] | AC50 (measured here: IkBa-CBG green luminescence)
1 | CC(=C/c1ccccc1)/C=N/NC(=O)c1cc(C)oc1C | 0.92 µM [falling, full curve] | –
2 | Cc1ccc(C(=O)NNC(=O)c2ccc3c(c2)OCCO3)cc1 | 6.51 µM [rising, full curve] | –
3 | COc1ccc(NC(=O)CSc2ncc(-c3ccc(F)cc3)n2Cc2ccco2)cc1 | 23.1 µM [falling, single point] | 23.1 µM [rising, partial curve, poor fit]
4 | CC(C)(C)c1nnc2sc(SCC(=O)N3CCc4ccccc43)nn2c1=O | 0.631 µM [falling, full curve, poor fit] | –
5 | CN1CCN(c2ccc(NC(=O)c3ccccc3Br)cc2)CC1 | 18.4 µM [falling, single point] | –
6 | Cc1cccc(C)c1NC(=O)COc1ccccc1C(=O)Nc1ccc(Br)cn1 | 1.64 µM [rising, full curve, poor fit] | –
7 | CCOC(=O)N1CCC(NC(=O)c2ccc3c(c2)N=C(CC)c2cc(C)ccc2S3)CC1 | 11.2 µM [falling, partial curve, poor fit] | –
8 | Cn1c(C(=O)NC2CCCC2)cc2c(=O)n(C)c3ccccc3c21 | 3.16 µM [rising, full curve, poor fit] | –
9 | Cc1ccc(Cn2c(C)nc3c(c2=O)c2nc4ccccc4nc2n3Cc2ccco2)cc1 | 2.31 µM [falling, full curve] | –
10 | CCOC(=O)c1cccc(NC(=O)c2cccs2)c1 | 14.1 µM [falling, partial curve, poor fit] | –
11 | O=P(O)(O)c1ccccc1OCCOCCOCCOCCOc1ccccc1P(=O)(O)O | 0.398 µM [falling, full curve, poor fit] | –
12 | NC(=O)NC(CC(=O)NCCc1ccccn1)c1ccccc1Cl (stereo not drawn) | 0.1 µM [falling, full curve, poor fit] | –
13 | Cc1cccc(NC(=O)CCC(=O)Nc2nnc(C(F)(F)F)s2)c1 | 20 µM [rising, partial curve, poor fit] | –
14 | Cc1nn(-c2ccccc2)c(Cl)c1/C=N/NC(=O)c1ccccc1F | 35.5 µM [falling, single point] | –
15 | O=C(O)CCN1C(=O)/C(=C\c2cccc(OCC(=O)Nc3ccc(Cl)cc3)c2)SC1=S | 1.12 µM [falling, full curve] | –
16 | Cc1ccc(NC(=O)c2sc3ncn(Cc4cccc(F)c4)c(=O)c3c2C)c(Br)c1 | 17.8 µM [rising, single point] | –
17 | CC(C)(C)C(=O)N1CCc2cc(-c3csc(N)n3)ccc21 | 2.51 µM [rising, full curve] | –

Looked up above:
For AC50 [1], `CCOC(=O)c1cccc(NC(=O)c2cccs2)c1` shows 14.1 µM [falling, partial curve, poor fit]
For AC50 [1], `Cn1c(C(=O)NC2CCCC2)cc2c(=O)n(C)c3ccccc3c21` shows 3.16 µM [rising, full curve, poor fit]
